PubChem BioAssay AID588499 (NMMLSC, 2011)
Among all 360,000 compounds or so, about 610 (0.17%) were called active. The shares of active, inactive and inconclusive entries below differ from those in the screen. Rule as the data show it: active = inhibition above about 30%; inconclusive = no clear call, values can overlap the other calls; inactive = below that.

Test system: Botulinum neurotoxin type A light chain protease (Clostridium botulinum A str. ATCC 3502)
Experiment: blockers of BoNT/A LC substrate cleavage – biochemical, flow cytometry, MLPCN library, primary screen (AID 588499); also: plate controls were buffer without enzyme for full effect and enzyme alone for no effect
Details: multiplex microsphere protease substrate cleavage, at 10 µM, hits give high values

Row | SMILES | inhibition
1 | N#Cc1c(F)cccc1N1CCC(C#N)CC1 | inconclusive: 11%
2 | CC(C)/C=C/CN1CCCC(N2CCN(c3cccc(Cl)c3)CC2)C1 (stereo not drawn) | inconclusive: 0.4%
3 | CCCSc1nc(SCC(=O)NCc2ccccc2)c2c3c(sc2n1)COC(C)(CC)C3 (stereo not drawn) | inconclusive: -2%
4 | CCCS(=O)(=O)NC(=O)C1(C)CCCN(C(=O)c2ccc(C(=O)OC)cc2)C1 (stereo not drawn) | inactive: -0.2%
5 | CCC(/C=C1\Sc2ccc(OC)cc2N1CCO)=C\c1sc2ccc(OC)cc2[n+]1CCO | active: 40.5%
6 | O=C(O)CC(CN1C(=O)c2ccccc2C1=O)c1ccccc1 (stereo not drawn) | inactive: 0.2%
7 | COc1ccc(Oc2ccc3c(C(F)(F)F)cc(C(F)(F)F)nc3n2)cc1 | inconclusive: 0%
8 | CCOC(=O)C(=O)Nc1ncc(Cl)s1 | inactive: -0.5%
9 | CCOC(=O)c1nc(C)[nH]c1C(=O)OCC | inconclusive: 0.9%
10 | Cc1cc(CC(C)C)n(-c2nc3ccccc3c(=O)n2OCc2ccccc2)n1 | inconclusive: -2.8%
11 | O=C(N1CCOCC1)C(F)(F)C(F)(F)C(F)(F)C(F)(F)C(=O)N1CCOCC1 | inconclusive: -0.5%
12 | COc1cccc(-c2sc3ccc(OC)cc3c2-c2ccc(OCCN3CCCC3)cc2)c1 | inactive: -0.4%
13 | COC(=O)C1CN(C(=O)COc2cc(C)cc(C)c2)c2ccccc2O1 (stereo not drawn) | inactive: 0.3%
14 | Cn1cccc1/C=N/NC(=O)Cc1ccccc1 | inconclusive: -5.9%
15 | COc1ccc(-n2c(SCc3cccnc3)nc3c(c2=O)SCC3)cc1OC | inactive: 2%
16 | CC1(C(=O)Nc2ccc(Cl)cc2)Cc2c(-c3ccc(C(N)=O)cc3)ccnc2O1 (stereo not drawn) | inactive: 0.1%
17 | COc1ccc(-c2cc(=O)oc3c(C)c(OCc4nn[nH]n4)ccc23)cc1 | inconclusive: -2.1%
18 | O=S(=O)(Nc1cc(Cl)ccc1N1CCCCC1)c1cccs1 | inconclusive: 6.9%
19 | C=CCOC(=O)C1=C(C)OC(N)=C(C(=O)OCC)C12C(=O)N(CC(N)=O)c1ccccc12 (stereo not drawn) | inconclusive: 2.9%
20 | CCc1[nH]c(=O)c(C#N)c2c1CSC(C)(C)C2 | inconclusive: 1.5%

Row | SMILES | inhibition
21 | O=C1CSc2ccc(C(=O)NCCC3=CCCCC3)cc2N1 | inconclusive: 0.4%
22 | c1ccc(CN=C2CCCc3ccccc3N2)cc1 | inactive: -0.3%
23 | COCCN(C(=O)COC(=O)c1ccco1)c1c(N)n(Cc2ccccc2)c(=O)[nH]c1=O | inconclusive: -0.3%
24 | Cc1cc(Cl)c(S(=O)(=O)Nc2ccc3c(c2)OCCO3)cc1OCC(=O)NC1CCCCC1 | inconclusive: 4.2%
25 | CCOC(=O)CC(=O)CSc1ccc2nnc(-c3ccccc3)n2n1 | inconclusive: 3.5%
26 | O=CN1CCC(=O)N(Cc2ccccc2)c2ccccc21 | inconclusive: -4.3%
27 | CCc1cccc(CC)c1NC(=O)c1cccc(N)c1 | inactive: -0.8%
28 | Cc1ccc(NC(=O)C(C)OC(=O)c2ccc(NC(=O)CC#N)cc2)cc1S(=O)(=O)N1CCOCC1 (stereo not drawn) | inconclusive: -0.3%
29 | C=CCOc1ccccc1/C=N/O | inconclusive: -3.4%
30 | CC(C)C[C@H](NC(=O)OC(C)(C)C)c1nnc(SCc2ccccc2)o1 | inconclusive: 1.7%
31 | CCOc1ccc2[nH]c(=O)c(CN(Cc3nnnn3Cc3ccccc3)CC3CCCO3)cc2c1 (stereo not drawn) | inconclusive: 0.4%
32 | Cc1nc(C)c(C(=O)N(c2ccccc2F)C(C(=O)NCC2CCCO2)c2ccccc2)s1 (stereo not drawn) | inactive: -2.3%
33 | CC(C)CC12CN3CCN(CC(C3)C1O)C2 (stereo not drawn) | inconclusive: 0.2%
34 | C[C@@H]1CN([C@@H](C)CO)C(=O)c2cc(NS(C)(=O)=O)ccc2O[C@@H](C)CCCCO[C@H]1CN(C)Cc1ccc2c(c1)OCO2 | inactive: -0.3%
35 | O=C(O)CCC(=O)Nc1ccc(OCC(=O)O)cc1 | inconclusive: 0.9%
36 | O=C(Cc1nc(-c2cnccn2)no1)NNC(=O)Nc1ccccc1 | inconclusive: 8.1%
37 | Cc1ccc(S(=O)(=O)CCc2nc3ccccc3s2)cc1 | inactive: 1.1%
38 | Cc1ccc(S(=O)(=O)c2nc(S(C)(=O)=O)sc2N2CCN(C)CC2)cc1 | inactive: 0.6%
39 | COC(=O)c1ccccc1NS(=O)(=O)c1ccc(F)cc1 | inconclusive: 2.6%
40 | CN(C)CCC(O)c1ccccc1 (stereo not drawn) | inconclusive: 6.7%

A stretch from further up:
Row | SMILES | inhibition
32 | Cc1nc(C)c(C(=O)N(c2ccccc2F)C(C(=O)NCC2CCCO2)c2ccccc2)s1 (stereo not drawn) | inactive: -2.3%
33 | CC(C)CC12CN3CCN(CC(C3)C1O)C2 (stereo not drawn) | inconclusive: 0.2%

(more compounds)

Row | SMILES | inhibition
41 | CC(CN1CCCCC1)OC(=O)/C=C/c1ccccc1 (stereo not drawn) | inactive: 0%
42 | Cn1c(=O)n(Cc2ccccc2)c(=O)c2c1nc1n2CCCN1CCc1ccccc1 | inconclusive: -1.4%
43 | CCC(=O)Nc1cc(C(=O)OC(C(=O)c2ccc(C)c(C)c2)c2ccccc2)ccc1C (stereo not drawn) | inconclusive: -2.7%
44 | O=C(c1ccccc1)N1CCN(Cc2cccc(Oc3ccccc3)c2)CC1 | inactive: 3.5%
45 | O=C1[C@@H]2[C@H]3CC[C@H](C3)[C@@H]2C(=O)N1O | inconclusive: 10.8%
46 | S=c1[nH]nc(C2CCCCC2)n1/N=C/c1ccc(Br)s1 | inconclusive: 48.3%
47 | COc1ccc(CNC(=O)c2cccc3c(-c4cccc(C(N)=O)c4)coc23)cc1OC | inactive: -0.2%
48 | COc1cc2c(cc1OC)CN(S(=O)(=O)c1ccc3c(c1)OCCO3)CC2 | inconclusive: -3.8%
49 | Cc1nn(-c2ccccc2)c(C)c1C(=O)OCC(=O)N1CCN(S(=O)(=O)c2ccccc2)CC1 | inconclusive: 1.1%
50 | S=c1[nH]nc(Cc2ccccc2)n1-c1ccccc1 | inconclusive: 3.1%
51 | O=C(CS(=O)(=O)c1ccccc1)Nc1nccs1 | inactive: -0.2%
52 | Nc1nnc(SCC(=O)OCc2ccc(Cl)c(Cl)c2)s1 | inactive: -0.2%
53 | CC(=O)Nc1cc(-c2ccccc2F)cn2c(-c3ccccc3)cnc12 | inactive: -0.1%
54 | Cc1cc(C)n(C/C=C/Cn2nc(C)cc2C)n1 | inconclusive: 1.1%
55 | CCN1C(c2ccccc2)=C(c2ccccc2)S/C1=C\C=C1/SC(=S)N(C)C1=O | active: 98.5%
56 | COCCSc1ccccc1C(=O)NCc1ccc(S(N)(=O)=O)cc1 | inconclusive: 0.1%
57 | O=C(CCc1nc2ccccc2c(=O)[nH]1)Nc1nnc(SCc2ccc(F)cc2)s1 | inactive: 2.8%
58 | Cc1oc(S(=O)(=O)N2CCCCC2)cc1NC(=O)Nc1ccc(F)cc1 | inconclusive: -33%

In the list so far, these contain a COOH group:
Row | SMILES | inhibition
6 | O=C(O)CC(CN1C(=O)c2ccccc2C1=O)c1ccccc1 (stereo not drawn) | inactive: 0.2%
35 | O=C(O)CCC(=O)Nc1ccc(OCC(=O)O)cc1 | inconclusive: 0.9%
